The list shows a part of the results.
How the values were obtained:
Assay in all cases: log2 fold change, soluble protein after heating vs DMSO (PISA); higher = thermal stabilisation; K562 cells, 10 uM, 30 min; active = over 0.2 and 3.5 SD of the protein, either way, in both replicates (recomputed)
erlotinib = compound: C#Cc1cccc(Nc2ncnc3cc(OCCOC)c(OCCOC)cc23)c1 [erlotinib]
In short: (§1)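 K562 cells at 2×10^6 cells/mL were treated with 10 μM compound for 30 min. Aliquots were heated for 3 min across 48°C-58°C, pooled, and extracted in PBS with 0.5% NP-40 at 4°C; soluble protein was the supernatant after 21,000xg for 90 min. Soluble protein was quantified by TMTpro 16plex LC-MS/MS with channel sums equalised, and reported as log2 fold change in thermal stability against DMSO controls, with values from duplicates.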

Protein sequences, listed by entry. Tags and fused reporters are not part of them. Lines headed by an entry give the natural chain unless they say otherwise; changes in a name come on top.
UniProt Q9Y4W6: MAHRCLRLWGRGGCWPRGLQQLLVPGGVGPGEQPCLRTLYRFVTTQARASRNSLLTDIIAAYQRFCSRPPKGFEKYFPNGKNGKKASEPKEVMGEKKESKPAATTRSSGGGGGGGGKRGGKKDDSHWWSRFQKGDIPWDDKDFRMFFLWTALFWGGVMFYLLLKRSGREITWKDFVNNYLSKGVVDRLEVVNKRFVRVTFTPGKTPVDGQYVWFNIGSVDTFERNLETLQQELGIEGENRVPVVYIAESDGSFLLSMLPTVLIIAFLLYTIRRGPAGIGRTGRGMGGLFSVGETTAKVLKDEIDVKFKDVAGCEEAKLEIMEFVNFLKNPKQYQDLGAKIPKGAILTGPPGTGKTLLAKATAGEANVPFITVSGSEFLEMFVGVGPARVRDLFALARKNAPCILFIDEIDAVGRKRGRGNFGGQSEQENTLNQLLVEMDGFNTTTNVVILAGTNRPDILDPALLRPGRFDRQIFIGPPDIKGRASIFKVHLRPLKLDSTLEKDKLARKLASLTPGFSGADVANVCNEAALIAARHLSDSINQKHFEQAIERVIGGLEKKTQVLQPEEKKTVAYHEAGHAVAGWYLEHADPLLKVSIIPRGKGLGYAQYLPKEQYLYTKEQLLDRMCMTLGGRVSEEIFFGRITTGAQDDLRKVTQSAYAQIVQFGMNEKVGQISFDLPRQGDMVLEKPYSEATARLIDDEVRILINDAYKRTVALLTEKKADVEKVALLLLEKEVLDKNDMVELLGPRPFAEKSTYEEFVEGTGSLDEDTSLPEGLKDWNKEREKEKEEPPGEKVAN
UniProt Q9UM13, whole entry, looked up: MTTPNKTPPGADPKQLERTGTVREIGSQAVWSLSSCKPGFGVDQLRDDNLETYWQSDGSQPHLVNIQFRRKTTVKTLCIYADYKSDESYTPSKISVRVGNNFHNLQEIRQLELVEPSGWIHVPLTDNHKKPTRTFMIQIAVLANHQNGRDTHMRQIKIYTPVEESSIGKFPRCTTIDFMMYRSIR
UniProt Q6RW13: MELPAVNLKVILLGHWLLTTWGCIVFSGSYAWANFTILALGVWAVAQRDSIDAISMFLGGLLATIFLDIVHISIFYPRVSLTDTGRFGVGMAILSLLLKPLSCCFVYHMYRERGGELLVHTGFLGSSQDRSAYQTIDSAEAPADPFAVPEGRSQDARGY
UniProt P30520: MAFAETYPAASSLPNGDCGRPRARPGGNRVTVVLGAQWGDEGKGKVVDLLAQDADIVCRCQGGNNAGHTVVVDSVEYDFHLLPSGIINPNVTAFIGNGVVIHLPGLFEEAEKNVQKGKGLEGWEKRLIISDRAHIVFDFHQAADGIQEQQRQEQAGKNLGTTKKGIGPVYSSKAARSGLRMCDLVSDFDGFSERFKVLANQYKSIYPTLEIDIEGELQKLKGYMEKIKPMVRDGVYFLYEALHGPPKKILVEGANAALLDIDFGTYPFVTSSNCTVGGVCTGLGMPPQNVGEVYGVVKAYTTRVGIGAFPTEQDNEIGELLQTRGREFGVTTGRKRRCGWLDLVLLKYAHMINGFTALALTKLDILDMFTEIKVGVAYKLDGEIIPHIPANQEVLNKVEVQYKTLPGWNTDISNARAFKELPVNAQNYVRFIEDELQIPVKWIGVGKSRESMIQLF
UniProt P31749: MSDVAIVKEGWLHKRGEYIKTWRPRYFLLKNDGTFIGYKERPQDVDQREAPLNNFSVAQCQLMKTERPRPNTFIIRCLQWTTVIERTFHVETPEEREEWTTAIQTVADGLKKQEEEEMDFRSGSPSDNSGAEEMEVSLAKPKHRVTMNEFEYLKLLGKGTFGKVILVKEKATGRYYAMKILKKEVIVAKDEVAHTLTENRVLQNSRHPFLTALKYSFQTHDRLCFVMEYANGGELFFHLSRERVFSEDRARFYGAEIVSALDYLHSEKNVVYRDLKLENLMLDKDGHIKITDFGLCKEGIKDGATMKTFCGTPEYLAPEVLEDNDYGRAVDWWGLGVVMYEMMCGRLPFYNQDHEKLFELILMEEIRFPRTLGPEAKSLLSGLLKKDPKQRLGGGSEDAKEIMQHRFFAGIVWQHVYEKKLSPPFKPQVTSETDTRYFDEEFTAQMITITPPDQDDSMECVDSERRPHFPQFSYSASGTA
UniProt Q01433: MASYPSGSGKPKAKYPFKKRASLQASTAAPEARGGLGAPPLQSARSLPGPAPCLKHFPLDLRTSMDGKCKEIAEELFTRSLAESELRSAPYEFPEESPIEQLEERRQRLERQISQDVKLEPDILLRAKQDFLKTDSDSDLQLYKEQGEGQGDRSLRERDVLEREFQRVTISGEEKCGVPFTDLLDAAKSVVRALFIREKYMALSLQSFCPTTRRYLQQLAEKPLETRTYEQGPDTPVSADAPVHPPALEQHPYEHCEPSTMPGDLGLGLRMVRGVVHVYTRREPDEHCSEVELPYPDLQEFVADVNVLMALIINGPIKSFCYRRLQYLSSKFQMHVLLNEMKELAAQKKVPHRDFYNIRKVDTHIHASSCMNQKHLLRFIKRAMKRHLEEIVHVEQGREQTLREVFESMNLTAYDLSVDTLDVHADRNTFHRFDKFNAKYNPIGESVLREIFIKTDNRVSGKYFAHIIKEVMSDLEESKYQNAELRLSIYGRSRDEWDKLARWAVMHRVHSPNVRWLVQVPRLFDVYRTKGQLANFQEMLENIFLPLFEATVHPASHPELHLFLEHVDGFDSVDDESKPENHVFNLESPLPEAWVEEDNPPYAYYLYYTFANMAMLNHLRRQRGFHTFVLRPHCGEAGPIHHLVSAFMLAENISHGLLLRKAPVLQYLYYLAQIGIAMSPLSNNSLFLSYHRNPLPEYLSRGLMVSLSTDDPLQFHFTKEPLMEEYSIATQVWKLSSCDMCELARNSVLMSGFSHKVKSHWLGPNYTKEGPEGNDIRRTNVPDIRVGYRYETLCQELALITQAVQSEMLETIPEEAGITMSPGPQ
UniProt O94788: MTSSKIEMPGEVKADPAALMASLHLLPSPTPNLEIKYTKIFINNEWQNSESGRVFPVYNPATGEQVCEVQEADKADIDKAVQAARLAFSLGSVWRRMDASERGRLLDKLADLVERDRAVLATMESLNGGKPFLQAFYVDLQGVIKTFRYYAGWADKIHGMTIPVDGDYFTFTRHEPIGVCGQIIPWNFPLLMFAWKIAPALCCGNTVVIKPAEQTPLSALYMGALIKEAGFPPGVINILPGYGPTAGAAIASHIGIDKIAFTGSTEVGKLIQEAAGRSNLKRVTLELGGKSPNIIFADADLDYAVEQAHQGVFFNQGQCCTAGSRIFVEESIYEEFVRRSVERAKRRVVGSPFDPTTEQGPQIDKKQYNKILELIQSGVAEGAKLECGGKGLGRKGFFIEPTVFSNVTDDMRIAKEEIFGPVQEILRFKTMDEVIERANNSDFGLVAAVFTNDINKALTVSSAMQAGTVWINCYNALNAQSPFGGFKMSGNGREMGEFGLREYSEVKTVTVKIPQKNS
UniProt Q9Y3D8, whole entry, looked up: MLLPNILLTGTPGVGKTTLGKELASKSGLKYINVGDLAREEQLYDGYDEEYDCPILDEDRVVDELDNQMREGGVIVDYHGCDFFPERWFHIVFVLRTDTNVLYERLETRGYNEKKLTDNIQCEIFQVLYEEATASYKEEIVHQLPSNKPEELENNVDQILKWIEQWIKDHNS
UniProt Q2TAA5: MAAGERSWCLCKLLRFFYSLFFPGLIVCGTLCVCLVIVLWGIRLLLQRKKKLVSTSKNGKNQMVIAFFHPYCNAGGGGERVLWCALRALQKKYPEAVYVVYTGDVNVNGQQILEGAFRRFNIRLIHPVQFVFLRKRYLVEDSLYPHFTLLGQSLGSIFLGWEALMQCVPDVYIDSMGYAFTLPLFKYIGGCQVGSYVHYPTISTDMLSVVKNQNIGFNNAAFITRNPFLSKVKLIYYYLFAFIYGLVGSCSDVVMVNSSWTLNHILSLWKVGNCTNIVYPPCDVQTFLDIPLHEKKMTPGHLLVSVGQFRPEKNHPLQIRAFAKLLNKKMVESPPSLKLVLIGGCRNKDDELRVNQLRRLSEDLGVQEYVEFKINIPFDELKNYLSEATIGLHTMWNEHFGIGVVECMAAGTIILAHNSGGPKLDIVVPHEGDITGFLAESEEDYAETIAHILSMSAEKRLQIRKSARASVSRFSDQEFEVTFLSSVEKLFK
UniProt Q9BVK2: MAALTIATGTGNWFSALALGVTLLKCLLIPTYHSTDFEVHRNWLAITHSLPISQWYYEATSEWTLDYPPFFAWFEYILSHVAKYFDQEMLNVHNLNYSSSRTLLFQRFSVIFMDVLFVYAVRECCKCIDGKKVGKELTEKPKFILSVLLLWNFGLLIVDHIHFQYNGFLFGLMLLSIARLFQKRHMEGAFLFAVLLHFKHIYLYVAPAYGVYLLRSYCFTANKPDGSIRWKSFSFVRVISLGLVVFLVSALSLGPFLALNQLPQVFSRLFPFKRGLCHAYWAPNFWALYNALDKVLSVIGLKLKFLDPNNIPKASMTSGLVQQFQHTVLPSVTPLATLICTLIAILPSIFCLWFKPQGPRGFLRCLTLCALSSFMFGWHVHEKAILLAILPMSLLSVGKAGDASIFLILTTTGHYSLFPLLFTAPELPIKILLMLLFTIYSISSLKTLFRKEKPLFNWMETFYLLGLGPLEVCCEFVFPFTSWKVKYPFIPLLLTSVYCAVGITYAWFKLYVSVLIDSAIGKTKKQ
UniProt Q6P6C2: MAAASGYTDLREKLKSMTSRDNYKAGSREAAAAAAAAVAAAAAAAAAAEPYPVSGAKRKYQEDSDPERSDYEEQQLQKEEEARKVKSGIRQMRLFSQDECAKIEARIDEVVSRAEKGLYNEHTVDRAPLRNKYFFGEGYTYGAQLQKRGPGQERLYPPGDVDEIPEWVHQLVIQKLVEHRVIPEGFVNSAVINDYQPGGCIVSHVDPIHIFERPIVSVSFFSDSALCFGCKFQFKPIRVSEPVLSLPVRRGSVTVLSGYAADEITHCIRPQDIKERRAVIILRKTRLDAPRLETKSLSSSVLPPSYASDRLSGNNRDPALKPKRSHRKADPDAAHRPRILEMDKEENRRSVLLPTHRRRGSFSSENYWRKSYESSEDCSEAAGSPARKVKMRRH
UniProt Q9H553: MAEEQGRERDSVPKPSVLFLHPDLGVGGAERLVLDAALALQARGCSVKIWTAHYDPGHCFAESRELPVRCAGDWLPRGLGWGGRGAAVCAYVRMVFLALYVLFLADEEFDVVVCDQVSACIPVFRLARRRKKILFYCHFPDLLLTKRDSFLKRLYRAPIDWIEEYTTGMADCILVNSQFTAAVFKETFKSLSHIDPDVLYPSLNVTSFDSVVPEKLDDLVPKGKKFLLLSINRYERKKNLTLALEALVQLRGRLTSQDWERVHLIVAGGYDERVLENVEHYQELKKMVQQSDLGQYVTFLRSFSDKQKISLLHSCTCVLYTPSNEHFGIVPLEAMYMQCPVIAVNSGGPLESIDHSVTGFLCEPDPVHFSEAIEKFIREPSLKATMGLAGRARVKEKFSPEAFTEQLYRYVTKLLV
UniProt P49189: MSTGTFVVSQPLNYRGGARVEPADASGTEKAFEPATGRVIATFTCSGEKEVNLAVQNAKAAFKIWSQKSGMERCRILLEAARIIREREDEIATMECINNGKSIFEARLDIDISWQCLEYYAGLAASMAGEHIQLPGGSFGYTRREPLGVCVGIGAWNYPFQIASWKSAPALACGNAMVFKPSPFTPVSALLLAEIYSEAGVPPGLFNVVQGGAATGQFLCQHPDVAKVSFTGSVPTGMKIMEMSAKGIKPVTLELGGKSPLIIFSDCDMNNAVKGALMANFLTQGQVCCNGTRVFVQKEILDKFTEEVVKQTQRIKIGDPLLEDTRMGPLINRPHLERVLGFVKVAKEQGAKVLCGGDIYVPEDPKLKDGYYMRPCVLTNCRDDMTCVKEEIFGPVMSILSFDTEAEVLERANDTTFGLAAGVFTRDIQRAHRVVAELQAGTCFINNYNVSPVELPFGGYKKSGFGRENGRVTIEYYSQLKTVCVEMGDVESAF
UniProt P52594: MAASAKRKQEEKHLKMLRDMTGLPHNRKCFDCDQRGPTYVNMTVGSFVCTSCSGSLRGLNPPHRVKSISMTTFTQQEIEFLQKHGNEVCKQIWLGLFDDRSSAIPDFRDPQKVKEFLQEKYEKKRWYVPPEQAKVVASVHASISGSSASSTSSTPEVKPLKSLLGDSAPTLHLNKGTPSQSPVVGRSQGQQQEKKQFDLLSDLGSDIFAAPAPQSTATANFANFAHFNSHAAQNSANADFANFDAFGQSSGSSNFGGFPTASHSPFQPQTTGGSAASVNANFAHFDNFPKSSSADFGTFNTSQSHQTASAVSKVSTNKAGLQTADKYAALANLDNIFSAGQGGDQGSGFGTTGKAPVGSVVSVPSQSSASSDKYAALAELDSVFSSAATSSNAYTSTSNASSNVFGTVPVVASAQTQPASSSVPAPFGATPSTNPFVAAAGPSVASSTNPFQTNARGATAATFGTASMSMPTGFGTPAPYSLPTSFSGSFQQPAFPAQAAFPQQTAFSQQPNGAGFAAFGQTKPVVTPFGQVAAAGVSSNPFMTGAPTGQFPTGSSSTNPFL

[1] = compound: C/C(=N\NC(=O)C1=CC(=CC=C1)S(=O)(=O)N2CCOCC2)/C3=C(C=CC(=C3)Cl)O
In short: as §1

[2] = compound: C1=CC(=C(C=C1Cl)C2=NC3=NC=CN=C3C(=N2)NC4=CC=NC=C4)F
In short: as §1

[3] = compound: C1=CC(=CC=C1C2=NC3=C(N2)C=C(C=C3)C(=O)N)OC4=CC=C(C=C4)Cl
In short: as §1

[4] = compound: C1=CC2=C(C=CC(=C2)/C=C\3/C(=O)NC(=NCC4=CC=CS4)S3)N=C1
In short: as §1

[5] = compound: C1=CC2=NC=CN=C2C=C1/C=C/3\C(=O)NC(=O)S3
In short: as §1

[6] = compound: C1=CC=C(C=C1)C2=NC(=C(N2)C3=CC=NC=C3)C4=CC(=C(C=C4)Cl)O
In short: as §1

[7] = compound: C1=CC=C2C(=C1)C3=NNC4=CC=CC(=C43)C2=O
In short: as §1

[8] = compound: C1CCN(C1)C(=O)NC2=CC=CC(=C2)NC3=NC=C(C(=N3)NCCC4=CN=CN4)Br
In short: as §1

[9] = compound: C1CN(CCC1(CC2=CC=C(C=C2)Cl)N)C3=NC=NC4=C3C=CN4
In short: as §1

Measured: log2 fold change

AKAP1 (UniProt Q92667)
inactive: erlotinib 0.024 | [1] 0.007 | [2] -0.184 | [3] -0.003 | [4] 0.06 | [5] 0.025 | [6] 0.002 | [7] 0.03 | [8] -0.046 | [9] -0.116

AFG3L2 (UniProt Q9Y4W6)
inactive: erlotinib 0.024 | [1] -0.09 | [2] 0.034 | [3] -0.073 | [4] 0 | [5] 0.04 | [6] 0.015 | [7] 0.007 | [8] 0.01 | [9] 0.012

AHNAK (UniProt Q09666)
inactive: erlotinib -0.022 | [1] -0.037 | [2] -0.029 | [3] 0 | [4] -0.014 | [5] 0.034 | [6] -0.046 | [7] -0.088 | [8] -0.003 | [9] 0.02

AGO3 (UniProt Q9H9G7)
inactive: erlotinib -0.061 | [1] -0.002 | [2] -0.072 | [3] -0.053 | [4] 0.078 | [5] 0.002 | [6] -0.102 | [7] -0.161 | [8] -0.094 | [9] 0.031

ANAPC10 (UniProt Q9UM13)
inactive: erlotinib -0.005 | [1] 0.017 | [2] -0.004 | [3] -0.007 | [4] 0.019 | [5] 0.023 | [6] 0.009 | [7] 0.023 | [8] -0.11 | [9] -0.051

AGTRAP (UniProt Q6RW13)
inactive: erlotinib 0.024 | [1] -0.065 | [2] -0.074 | [3] 0.048 | [4] 0.013 | [5] 0.083 | [6] -0.059 | [7] -0.021 | [8] -0.007 | [9] 0.03

ALDOC (UniProt P09972)
inactive: erlotinib 0.011 | [1] -0.022 | [2] 0.012 | [3] -0.03 | [4] 0.023 | [5] -0.017 | [6] -0.02 | [7] -0.014 | [8] -0.022 | [9] 0.044

ALAD isoform 2 (UniProt P13716)
inactive: erlotinib -0.023 | [1] 0.06 | [2] 0.026 | [3] 0.037 | [4] -0.03 | [5] 0.004 | [6] 0.034 | [7] 0.052 | [8] -0.017 | [9] 0.015

ADSS2 (UniProt P30520)
inactive: erlotinib -0.016 | [1] 0.03 | [2] 0.021 | [3] 0.015 | [4] 0.046 | [5] 0.008 | [6] -0.029 | [7] 0.019 | [8] -0.006 | [9] 0.031

AKR1C2 (UniProt P52895)
inactive: erlotinib 0.07 | [1] 0.014 | [2] -0.101 | [3] -0.092 | [4] 0.001 | [5] 0.085 | [6] 0.292 | [7] -0.038 | [8] 0.044 | [9] -0.028

AKT1 (UniProt P31749)
inactive: erlotinib 0.095 | [1] 0.034 | [2] 0.101 | [3] -0.067 | [4] 0 | [5] 0.184 | [6] 0.117 | [7] 0.059 | [8] -0.026 | [9] 0.164

AIFM1 (UniProt O95831)
inactive: erlotinib -0.004 | [1] -0.001 | [2] 0.023 | [3] -0.003 | [4] 0.003 | [5] 0.029 | [6] -0.029 | [7] -0.01 | [8] 0.01 | [9] 0.014

AKAP8L (UniProt Q9ULX6)
inactive: erlotinib 0.001 | [1] 0.085 | [2] 0.074 | [3] 0.026 | [4] -0.006 | [5] -0.058 | [6] -0.054 | [7] -0.027 | [8] -0.053 | [9] 0.031

AMPD2 (UniProt Q01433)
inactive: erlotinib -0.001 | [1] -0.002 | [2] 0.039 | [3] 0.009 | [4] 0.013 | [5] 0.001 | [6] 0.019 | [7] 0.019 | [8] 0.017 | [9] 0.061

AK3 (UniProt Q9UIJ7)
inactive: erlotinib -0.01 | [1] 0.007 | [2] 0.028 | [3] -0.017 | [4] 0.019 | [5] 0 | [6] -0.013 | [7] -0.007 | [8] 0.013 | [9] 0.01

ALDH1A2 (UniProt O94788)
inactive: erlotinib 0.013 | [1] 0.032 | [2] 0.091 | [3] -0.003 | [4] 0.032 | [5] -0.016 | [6] 0.051 | [7] 0.017 | [8] -0.03 | [9] 0.019

ALYREF (UniProt Q86V81)
inactive: erlotinib -0.144 | [1] -0.169 | [2] -0.344 | [3] -0.02 | [4] -0.111 | [5] 0.005 | [6] -0.079 | [7] -0.024 | [8] 0.078 | [9] -0.162

AFP (UniProt P02771)
inactive: erlotinib -0.364 | [1] -0.156 | [2] 0.162 | [3] 0.172 | [4] 0.221 | [5] -0.027 | [6] -0.001 | [7] -0.168 | [8] 0.297 | [9] 0.381

AGL (UniProt P35573)
inactive: erlotinib 0.004 | [1] -0.019 | [2] -0.296 | [3] 0.025 | [4] -0.031 | [5] 0.012 | [6] -0.098 | [7] 0.063 | [8] -0.038 | [9] -0.118

AK6 (UniProt Q9Y3D8)
inactive: erlotinib 0.105 | [1] 0.108 | [2] 0.007 | [3] -0.157 | [4] 0.194 | [5] 0.025 | [6] 0.046 | [7] -0.027 | [8] -0.041 | [9] -0.085

ALG11 (UniProt Q2TAA5)
inactive: erlotinib -0.015 | [1] 0.042 | [2] 0.075 | [3] 0.013 | [4] 0.074 | [5] 0.054 | [6] 0.009 | [7] -0.048 | [8] -0.045 | [9] -0.014

ALG8 (UniProt Q9BVK2)
inactive: erlotinib -0.019 | [1] 0.067 | [2] -0.006 | [3] 0.043 | [4] 0.104 | [5] 0.025 | [6] 0.144 | [7] 0.024 | [8] 0.027 | [9] 0.017

AKAP12 (UniProt Q02952)
inactive: erlotinib 0.042 | [1] 0.051 | [2] 0.059 | [3] -0.047 | [4] 0.07 | [5] -0.124 | [6] -0.122 | [7] 0.108 | [8] -0.057 | [9] 0.046

ALKBH5 (UniProt Q6P6C2)
inactive: erlotinib 0.176 | [2] -0.126 | [3] 0.139 | [4] 0.056 | [5] -0.067 | [6] 0.015 | [7] -0.032 | [8] -0.087 | [9] 0.113
active: [1] -0.637

ALG2 (UniProt Q9H553)
inactive: erlotinib 0.004 | [1] 0.108 | [2] -0.011 | [3] -0.029 | [4] 0.054 | [5] -0.015 | [6] -0.009 | [7] 0.026 | [8] 0.009 | [9] 0.011

AGO1 (UniProt Q9UL18)
inactive: erlotinib 0.031 | [1] -0.061 | [2] 0.05 | [3] -0.091 | [4] 0.032 | [5] 0.005 | [6] 0.01 | [7] -0.08 | [8] -0.008 | [9] 0.046

Taken from the listing (two entries):
ALG2 (UniProt Q9H553)
inactive: erlotinib 0.004 | [1] 0.108 | [2] -0.011 | [3] -0.029 | [4] 0.054 | [5] -0.015 | [6] -0.009 | [7] 0.026 | [8] 0.009 | [9] 0.011

AGO1 (UniProt Q9UL18)
inactive: erlotinib 0.031 | [1] -0.061 | [2] 0.05 | [3] -0.091 | [4] 0.032 | [5] 0.005 | [6] 0.01 | [7] -0.08 | [8] -0.008 | [9] 0.046

Carrying on:

ALDH9A1 (UniProt P49189)
inactive: erlotinib 0.131 | [1] 0.021 | [2] 0.035 | [3] -0.077 | [4] -0.023 | [5] 0.013 | [6] -0.103 | [7] 0.043 | [8] 0.035 | [9] 0.045

AGFG1 isoform 4 (UniProt P52594)
inactive: erlotinib -0.02 | [1] 0.071 | [2] 0.101 | [3] 0.009 | [4] 0.02 | [5] 0.013 | [6] -0.028 | [7] -0.01 | [8] -0.064 | [9] 0.062

ALDH18A1 (UniProt P54886)
inactive: erlotinib 0.016 | [1] 0.092 | [2] 0.089 | [3] -0.084 | [4] -0.007 | [5] -0.204 | [6] -0.093 | [7] -0.091 | [8] -0.015 | [9] -0.057

AGO4 (UniProt Q9HCK5)
inactive: erlotinib -0.094 | [1] -0.053 | [2] -0.127 | [3] 0.015 | [4] 0.04 | [5] 0.006 | [6] -0.024 | [7] -0.079 | [8] 0.051 | [9] -0.073

Reference: the supplement of paper PMC10849652
